Measured values: patent publication US20220372138A1
Residue numbers refer to the chain shown, from its start. These are yes or no findings as the source states them, for the method shown. Some entries that bind do so weakly or less than the wild type.

B1: A-034 (scFv format) (scFv, V domains shown)
VH: QMQLVQSGGGLVKPGGSLRLSCAASGFTFSSYTMNWVRQAPGKGLEWVSSISSIGTYIYYADSVKGRFTISRDNAKNSLYLQMNSLRAEDTAVYYCARVLLSGSYYGYFDSWGQGTLVTVSS
VL: QSVLTQPPSVSGAPGQRVTISCTGSSSNIGAGYDVHWYQQLPGTAPKLFIYGNSNRPSGVPDRFSGSKSGTSASLAITGLQAEDEADYYCQSYDSSLSGYVFGTGTKVTVL
B2: A-004 (scFv format) (scFv, V domains shown)
VH: EVQLVESGGGLVKPGGSLRLSCAASGFTFSSYSMNWVRQAPGKGLEWVSSISSSSSYIYYADSVKGRFTISRDNAKNSLYLQMNSLRAEDTAVYYCARGQLLWFGESALIDAFDIWGQGTMVTVSS
VL: EIVLTQSPSSLSASVGDRVTITCRASQSISSYLNWYQLKPGKAPKLLIYAASILQSGVPSRFSGSGSGTDFTLTISSLQPEDFAAYYCQQSYSTPRTFGQGTKLEIK
B3: A-005 (scFv format) (scFv, V domains shown)
VH: EVQLVESGGGLIQPGGSLRLSCAASGFTVSSNYMSWVRQAPGKGLEWVSVIYSGGSTYYADSVKGRFTISRDNSKNTLYLQMNSLRAEDTAVYYCARGNPYYYGDLQVNFDYWGQGTLVTVSS
VL: QAVVTQEPSLTVSPGETVTLTCASSTGAVTSGYYPNWFQQRPGQAPRALIYSTSNKDSWTPARFSGSLLGGKAALTLSGVQPEDEAEYYCLLYYGGAWVFGGGTKLTVL
B4: A-006 (scFv format) (scFv, V domains shown)
VH: B3 VH
VL: B3 VL with E16G, R41K, A48P, D57H, E83D, A97D
B5: A-008 (scFv format) (scFv, V domains shown)
VH: QLQLQESGPGLVKPSETLSLTCTVSGGSISSSGYYWGWIRQPPGKGLEWIGSIYYSGSTYYNPSLKSRVTISVDTSKNQFSLKLSSVTAADTAVYYCARHRVRFGEFDAFDIWGQGTMVTVSS
VL: QAVLTQPPSVSGAPGERVTLSCTGTSSNVGADFDVHWYQQFPGTAPRLLIFGSDNRPSGVPDRFSGSKSGTSASLAITGLQVEDEADYYCQAYDVRLSGWVFGGGTKLTVL
B6: A-001 (scFv format) (scFv, V domains shown)
VH: EVQLVESGGGLVKPGGSLRLSCAASGFTFSSYSMNWVRQAPGKGLEWVSSISSSSSYIYYADSVKGRFTISRDNAKNSLYLQMNSLRAEDTAVYYCVRSIIVQALGITSVFDIWGQGTMVTVSS
VL: AIRLTQSPSSLSASVGDRVTISCRASQIISNHLNWYQQKPGKAPKLLIYAASRLQTGVPSRFSGSGSETDYTLTISSLQPEDFATYYCQQSYSNPRTFGHGTKVEIK
B7: A-010 (scFv format) (scFv, V domains shown)
VH: QVQLVQSGAEVKKPGASVKVSCKASGYTFTSYGISWVRQAPGQGLEWMGWISAYNGNTNYAQKLQGRVTMTTDTSTSTAYMELRSLRSDDTAVYYCARVPAWSGQFDYWGQGTLVTVSS
VL: QSALTQPASVSGSPGQSITISCTGSSSDVGGYNYVSWYQQYPGKAPKLMIYDVRSRPSGVSNRFSGSKSGNTASLTISGLQAEDEADYYCTSYTSSNTLVIFGGGTKVTVL
B8: A-012 (scFv format) (scFv, V domains shown)
VH: B3 VH with V5L, A24V
VL: B3 VL with E16G, R41K, D57H
B9: A-013 (scFv format) (scFv, V domains shown)
VH: B3 VH
VL: B3 VL with E16G, G32A, R41K, D57H, E87D
B10: A-014 (scFv format) (scFv, V domains shown)
VH: QVQLVQSGAEVKKPGASVKVSCKASGYTFNDYYIHWVRQAPGQGLEWMGWFNPSTGGANYAQKFQGRVTMTRDTSISTAYLEVSSLRSDDTAVYYCARGNSPDLDYWGQGTLVTVSS
VL: DIQMTQSPDSLTVSLGERATINCKSSQSLLHSSNNKNYLAWYQQRPGQPPKLLIYWASTRQSGVPDRFSGSGSGTDFTLTINSLQADDMAVYYCQQYYTTTPNTFGQGTKLEIK
B11: A-016 (scFv format) (scFv, V domains shown)
VH: QVQLQESGAEVKKPGASVKVSCKASGYTFTGYYMHWVRQAPGQGLEWMGGIIPIFGTANYAQKFQGRVTITADESTSTAYMELSSLRSEDTAVYYCAGAGMELTRSGAYYYYGMDVWGQGTTVTVSS
VL: QSALTQPASVSGSPGQSITISCTGTSSDIGGYTFVSWYQQHPGKAPKVMIHDVNNRPSGISNRFSGSKSGNTASLTISGLQAEDEADYYCSSVTSTNTYVFGTGTKVTVL
B12: A-002 (scFv format) (scFv, V domains shown)
VH: B3 VH
VL: B3 VL with E16G, L20P, A23G, Y33N, Y34L, R41K, D57H, F64I
B13: A-013 (IgG1 format) (antibody, V domains shown)
VH: B3 VH
VL: B3 VL with E16G, G32A, R41K, D57H, E87D
B14: A-012 (IgG1 format) (antibody, V domains shown)
VH: B3 VH with V5L, A24V
VL: B3 VL with E16G, R41K, D57H
B15: A-022 (IgG1 format) (antibody, V domains shown)
VH: EVQLLESGPGLVKPSQTLSLTCTVSGGSISSGGYYWSWIRQHPGKGLEWIGYIYYSGSTYYNPSLKSRVTISVDTSKNQFSLKLSSVTAADTAVYYCARASRSTDYYFDYWGQGTLVTVSS
VL: QPGLTQPPSMSYGLGQTATLTCTGNRNNIGDQGAAWLQQHQGHPPKLLSYRNNNGPSGISERLSASRSGNTASLTISGLQPEDEADYYCSAWDSSLRAWVFGGGTKLTVL
B16: B-002 (chain-swapped IgG1) (antibody, V domains shown)
VH: B3 VH
VL: B3 VL with E16G, R41K, D57H
B17: B-004 (chain-swapped IgG1) (antibody, V domains shown)
VH: B3 VH with V5L, A24V
VL: B3 VL with E16G, R41K, A48P, D57H, E83D, A97D
B18: B-007 (chain-swapped IgG1) (antibody, V domains shown)
VH: B3 VH
VL: B3 VL with E16G, G32A, R41K, D57H, E87D
B19: B-006 (chain-swapped IgG1) (antibody, V domains shown)
VH: B3 VH
VL: B3 VL
B20: B-008 (chain-swapped IgG1) (antibody, V domains shown)
VH: B3 VH
VL: B3 VL with E16G, L20P, A23G, Y33N, Y34L, R41K, D57H, F64I
B21: B-003 (chain-swapped IgG1) (antibody, V domains shown)
VH: B3 VH with V5L, A24V
VL: B3 VL
B22: B-005 (chain-swapped IgG1) (antibody, V domains shown)
VH: B3 VH with V5L, A24V
VL: B3 VL with E16G, L20P, A23G, Y33N, Y34L, R41K, D57H, F64I
B23: B-001 (chain-swapped IgG1) (antibody, V domains shown)
VH: B3 VH with V5L, A24V
VL: B3 VL with E16G, G32A, R41K, D57H, E87D

Biological target: Streptavidin (UniProt P22629)
Test: scFv ELISA

Binder | binding
B1 | no binding (tested: <0.025 or <0.05 RFU)
B2 | no binding (tested: <0.025 or <0.05 RFU)
B3 | no binding (tested: <0.025 or <0.05 RFU)
B4 | no binding (tested: <0.025 or <0.05 RFU)
B5 | no binding (tested: <0.025 or <0.05 RFU)
B6 | no binding (tested: <0.025 or <0.05 RFU)
B7 | no binding (tested: <0.025 or <0.05 RFU)
B8 | no binding (tested: <0.025 or <0.05 RFU)
B9 | no binding (tested: <0.025 or <0.05 RFU)
B10 | no binding (tested: <0.025 or <0.05 RFU)
B11 | no binding (tested: <0.025 or <0.05 RFU)
B12 | no binding (tested: <0.025 or <0.05 RFU)

Biological target: human IGSF11 (VSIG3) expressed on cells (human) (UniProt Q5DX21)
Test: FACS MFI<100

Binder | binding
B1 | binds

Biological target: human IGSF11 (VSIG3) expressed on cells (human) (UniProt Q5DX21)
Test: FACS <25% cells

Binder | binding
B8 | binds
B9 | binds
B12 | binds

Biological target: human IGSF11 (VSIG3) expressed on cells (human) (UniProt Q5DX21)
Test: FACS >50% cells

Binder | binding
B2 | binds
B6 | binds
B11 | binds

Biological target: human IGSF11 (VSIG3) expressed on cells (human) (UniProt Q5DX21)
Test: FACS 35-50% cells

Binder | binding
B1 | binds
B3 | binds
B4 | binds
B5 | binds
B7 | binds
B10 | binds

Biological target: T1, IGSF11-hFc (human) (UniProt Q5DX21)
T1 sequence: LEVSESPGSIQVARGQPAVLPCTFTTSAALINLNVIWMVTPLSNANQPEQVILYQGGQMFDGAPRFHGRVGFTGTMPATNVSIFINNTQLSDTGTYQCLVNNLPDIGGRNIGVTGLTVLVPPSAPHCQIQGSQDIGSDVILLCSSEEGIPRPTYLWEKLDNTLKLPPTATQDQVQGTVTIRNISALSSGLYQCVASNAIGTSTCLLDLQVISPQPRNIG
Test: IgG1 ELISA EC50 <1 nM

Binder | binding
B13 | binds
B14 | binds
B15 | binds

Biological target: human IGSF11 (VSIG3) ECD, His-tagged (human) (UniProt Q5DX21)
Test: IgG1 ELISA EC50 <0.02 nM

Binder | binding
B16 | binds
B17 | binds
B18 | binds
B19 | binds
B20 | binds
B21 | binds
B22 | binds
B23 | binds

Biological target: human IGSF11 (VSIG3) ECD, His-tagged (human) (UniProt Q5DX21)
Test: ELISA: IGSF11-HIS coated, IgG1 dilution series, anti-human antibody-HRP, TMB

Binder | binding
B16 | binds
B17 | binds
B18 | binds
B19 | binds
B20 | binds
B21 | binds
B22 | binds
B23 | binds

Biological target: human IGSF11 (VSIG3) ECD, His-tagged (human) (UniProt Q5DX21)
Test: blocking ELISA: VSIR-Fc immobilised, IgG dilution series pre-incubated with 200 nM IGSF11 ECD-His, bound IGSF11 detected with anti-His-HRP

Binder | binding
B16 | binds
B17 | binds
B18 | binds
B19 | binds
B20 | binds
B21 | binds
B22 | binds
B23 | binds
